# Measurements from patent US5648336A (University of Colorado, priority 1994, dated 1997).
# Experiment: general procedure: Boc solid-phase peptide synthesis; BOP (HATU for hindered Boc-MPIV)
# Details: whole synthesis
substance,measurement,value
DArg-Arg-Pro-Hyp-Gly-Iglb-Ser-DIglb-M PIV-Arg,difficulty met,the Boc-MPIV failed to couple to the Arg-resin when activated by BOP
